# Reference: the supplement of paper PMC11732987, “Enantioselective OTUD7B fragment discovery through chemoproteomics screening and high-throughput optimisation” (Communications Chemistry, 2025)
# The chains behind the UniProt entries cited, without tags or fusion partners. Where a name states a change or a piece, a line headed by the entry shows the natural chain unless it says otherwise. Residues count along the entry.
# UniProt Q7Z5K2: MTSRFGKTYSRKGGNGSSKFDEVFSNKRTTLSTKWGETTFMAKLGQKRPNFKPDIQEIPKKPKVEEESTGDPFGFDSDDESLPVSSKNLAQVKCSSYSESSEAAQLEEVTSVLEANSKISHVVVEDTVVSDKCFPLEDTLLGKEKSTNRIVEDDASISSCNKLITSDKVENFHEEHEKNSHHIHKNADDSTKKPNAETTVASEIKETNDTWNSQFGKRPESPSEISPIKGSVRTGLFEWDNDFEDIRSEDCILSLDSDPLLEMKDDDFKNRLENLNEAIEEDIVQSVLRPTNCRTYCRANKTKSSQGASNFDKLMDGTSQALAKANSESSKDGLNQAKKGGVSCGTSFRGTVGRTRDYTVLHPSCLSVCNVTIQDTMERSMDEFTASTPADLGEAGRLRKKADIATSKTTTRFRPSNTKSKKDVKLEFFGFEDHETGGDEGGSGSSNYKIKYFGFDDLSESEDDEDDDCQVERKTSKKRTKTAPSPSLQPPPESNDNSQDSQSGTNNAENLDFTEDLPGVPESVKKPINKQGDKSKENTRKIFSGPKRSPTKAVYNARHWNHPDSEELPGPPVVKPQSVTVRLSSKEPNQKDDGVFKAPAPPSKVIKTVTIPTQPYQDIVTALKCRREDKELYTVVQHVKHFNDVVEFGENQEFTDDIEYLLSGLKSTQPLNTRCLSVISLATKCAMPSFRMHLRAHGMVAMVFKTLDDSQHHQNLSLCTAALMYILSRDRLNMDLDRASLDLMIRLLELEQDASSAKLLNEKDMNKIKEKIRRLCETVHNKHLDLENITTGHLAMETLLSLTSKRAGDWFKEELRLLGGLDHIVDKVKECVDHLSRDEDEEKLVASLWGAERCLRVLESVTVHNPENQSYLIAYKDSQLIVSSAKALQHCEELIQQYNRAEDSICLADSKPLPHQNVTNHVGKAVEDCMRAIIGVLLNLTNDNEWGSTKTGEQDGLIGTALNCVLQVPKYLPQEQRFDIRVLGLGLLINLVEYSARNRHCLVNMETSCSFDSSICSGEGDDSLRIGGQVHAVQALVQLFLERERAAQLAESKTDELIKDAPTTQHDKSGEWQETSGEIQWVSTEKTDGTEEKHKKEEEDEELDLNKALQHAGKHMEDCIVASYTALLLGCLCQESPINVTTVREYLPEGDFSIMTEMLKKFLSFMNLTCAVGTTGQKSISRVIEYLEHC
# UniProt Q96QU8: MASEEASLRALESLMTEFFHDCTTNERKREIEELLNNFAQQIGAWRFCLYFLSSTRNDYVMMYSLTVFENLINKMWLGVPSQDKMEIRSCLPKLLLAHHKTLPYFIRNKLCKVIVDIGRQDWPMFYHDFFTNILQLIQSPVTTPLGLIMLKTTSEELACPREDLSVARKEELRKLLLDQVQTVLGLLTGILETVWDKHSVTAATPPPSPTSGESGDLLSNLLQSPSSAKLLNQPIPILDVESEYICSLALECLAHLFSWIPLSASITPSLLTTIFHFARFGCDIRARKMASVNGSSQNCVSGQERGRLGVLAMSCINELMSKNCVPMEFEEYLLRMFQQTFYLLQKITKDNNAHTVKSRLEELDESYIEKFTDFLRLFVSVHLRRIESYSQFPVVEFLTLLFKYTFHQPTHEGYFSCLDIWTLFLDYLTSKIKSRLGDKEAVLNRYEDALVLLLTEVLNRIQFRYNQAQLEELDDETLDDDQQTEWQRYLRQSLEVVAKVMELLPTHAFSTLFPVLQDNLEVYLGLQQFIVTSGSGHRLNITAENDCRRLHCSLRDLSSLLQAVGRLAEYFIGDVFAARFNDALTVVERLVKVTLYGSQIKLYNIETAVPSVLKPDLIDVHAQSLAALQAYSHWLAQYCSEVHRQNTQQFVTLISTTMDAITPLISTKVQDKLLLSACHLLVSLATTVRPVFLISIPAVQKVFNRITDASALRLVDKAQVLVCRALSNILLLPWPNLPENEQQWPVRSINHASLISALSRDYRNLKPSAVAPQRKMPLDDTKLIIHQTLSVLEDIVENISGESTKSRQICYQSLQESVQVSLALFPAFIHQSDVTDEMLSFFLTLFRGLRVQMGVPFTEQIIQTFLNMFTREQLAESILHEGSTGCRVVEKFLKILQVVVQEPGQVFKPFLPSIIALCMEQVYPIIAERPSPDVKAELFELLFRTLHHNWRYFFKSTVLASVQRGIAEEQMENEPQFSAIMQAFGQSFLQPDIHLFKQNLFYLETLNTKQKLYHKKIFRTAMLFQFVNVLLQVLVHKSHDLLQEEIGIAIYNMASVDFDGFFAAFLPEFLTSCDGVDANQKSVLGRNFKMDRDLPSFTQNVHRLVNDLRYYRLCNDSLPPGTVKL
# UniProt Q8IZH2, 392-413: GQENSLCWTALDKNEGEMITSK
# UniProt Q9BYP7: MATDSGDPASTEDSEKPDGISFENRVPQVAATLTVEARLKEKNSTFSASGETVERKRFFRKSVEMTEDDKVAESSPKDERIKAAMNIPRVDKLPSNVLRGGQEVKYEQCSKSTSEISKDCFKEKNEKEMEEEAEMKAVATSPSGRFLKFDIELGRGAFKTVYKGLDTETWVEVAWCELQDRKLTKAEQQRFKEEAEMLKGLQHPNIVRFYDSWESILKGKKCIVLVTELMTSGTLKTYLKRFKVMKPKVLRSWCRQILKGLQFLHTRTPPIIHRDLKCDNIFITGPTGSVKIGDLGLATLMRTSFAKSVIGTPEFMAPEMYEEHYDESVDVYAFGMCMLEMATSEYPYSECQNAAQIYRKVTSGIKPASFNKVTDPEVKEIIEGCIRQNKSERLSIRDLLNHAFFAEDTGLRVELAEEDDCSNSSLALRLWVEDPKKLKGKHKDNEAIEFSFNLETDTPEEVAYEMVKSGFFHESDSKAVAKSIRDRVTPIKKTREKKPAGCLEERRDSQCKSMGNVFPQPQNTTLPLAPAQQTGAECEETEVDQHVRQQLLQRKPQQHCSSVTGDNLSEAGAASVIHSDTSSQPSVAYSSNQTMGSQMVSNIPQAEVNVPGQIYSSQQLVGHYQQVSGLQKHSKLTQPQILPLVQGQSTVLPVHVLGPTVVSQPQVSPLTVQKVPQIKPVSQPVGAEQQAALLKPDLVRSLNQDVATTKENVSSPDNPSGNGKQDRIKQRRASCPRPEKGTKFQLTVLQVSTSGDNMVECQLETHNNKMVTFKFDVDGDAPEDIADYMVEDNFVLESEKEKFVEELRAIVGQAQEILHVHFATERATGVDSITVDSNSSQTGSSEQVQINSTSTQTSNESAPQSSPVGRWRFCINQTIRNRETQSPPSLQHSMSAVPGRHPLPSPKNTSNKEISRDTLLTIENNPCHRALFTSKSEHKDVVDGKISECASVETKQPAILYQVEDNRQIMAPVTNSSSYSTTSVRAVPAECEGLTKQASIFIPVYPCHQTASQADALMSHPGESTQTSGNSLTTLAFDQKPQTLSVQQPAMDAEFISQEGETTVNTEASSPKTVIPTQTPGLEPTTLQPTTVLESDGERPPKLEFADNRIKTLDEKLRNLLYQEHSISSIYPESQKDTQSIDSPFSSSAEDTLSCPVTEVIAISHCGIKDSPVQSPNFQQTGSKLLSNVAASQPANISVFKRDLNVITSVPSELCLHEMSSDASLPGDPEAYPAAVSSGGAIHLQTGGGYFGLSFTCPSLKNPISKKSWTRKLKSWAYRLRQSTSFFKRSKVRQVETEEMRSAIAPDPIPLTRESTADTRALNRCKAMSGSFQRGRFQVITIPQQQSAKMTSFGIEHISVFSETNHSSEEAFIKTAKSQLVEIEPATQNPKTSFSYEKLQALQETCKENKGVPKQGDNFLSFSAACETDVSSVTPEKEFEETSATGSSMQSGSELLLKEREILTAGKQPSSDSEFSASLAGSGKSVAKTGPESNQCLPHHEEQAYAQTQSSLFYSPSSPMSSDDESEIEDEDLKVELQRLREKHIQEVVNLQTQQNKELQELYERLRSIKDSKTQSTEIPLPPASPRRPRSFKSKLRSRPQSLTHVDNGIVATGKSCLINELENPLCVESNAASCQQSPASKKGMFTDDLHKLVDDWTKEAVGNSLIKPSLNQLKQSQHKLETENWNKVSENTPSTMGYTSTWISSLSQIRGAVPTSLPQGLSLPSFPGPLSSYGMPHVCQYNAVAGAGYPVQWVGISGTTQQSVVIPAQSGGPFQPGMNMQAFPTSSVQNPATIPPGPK
# UniProt Q9HAV4: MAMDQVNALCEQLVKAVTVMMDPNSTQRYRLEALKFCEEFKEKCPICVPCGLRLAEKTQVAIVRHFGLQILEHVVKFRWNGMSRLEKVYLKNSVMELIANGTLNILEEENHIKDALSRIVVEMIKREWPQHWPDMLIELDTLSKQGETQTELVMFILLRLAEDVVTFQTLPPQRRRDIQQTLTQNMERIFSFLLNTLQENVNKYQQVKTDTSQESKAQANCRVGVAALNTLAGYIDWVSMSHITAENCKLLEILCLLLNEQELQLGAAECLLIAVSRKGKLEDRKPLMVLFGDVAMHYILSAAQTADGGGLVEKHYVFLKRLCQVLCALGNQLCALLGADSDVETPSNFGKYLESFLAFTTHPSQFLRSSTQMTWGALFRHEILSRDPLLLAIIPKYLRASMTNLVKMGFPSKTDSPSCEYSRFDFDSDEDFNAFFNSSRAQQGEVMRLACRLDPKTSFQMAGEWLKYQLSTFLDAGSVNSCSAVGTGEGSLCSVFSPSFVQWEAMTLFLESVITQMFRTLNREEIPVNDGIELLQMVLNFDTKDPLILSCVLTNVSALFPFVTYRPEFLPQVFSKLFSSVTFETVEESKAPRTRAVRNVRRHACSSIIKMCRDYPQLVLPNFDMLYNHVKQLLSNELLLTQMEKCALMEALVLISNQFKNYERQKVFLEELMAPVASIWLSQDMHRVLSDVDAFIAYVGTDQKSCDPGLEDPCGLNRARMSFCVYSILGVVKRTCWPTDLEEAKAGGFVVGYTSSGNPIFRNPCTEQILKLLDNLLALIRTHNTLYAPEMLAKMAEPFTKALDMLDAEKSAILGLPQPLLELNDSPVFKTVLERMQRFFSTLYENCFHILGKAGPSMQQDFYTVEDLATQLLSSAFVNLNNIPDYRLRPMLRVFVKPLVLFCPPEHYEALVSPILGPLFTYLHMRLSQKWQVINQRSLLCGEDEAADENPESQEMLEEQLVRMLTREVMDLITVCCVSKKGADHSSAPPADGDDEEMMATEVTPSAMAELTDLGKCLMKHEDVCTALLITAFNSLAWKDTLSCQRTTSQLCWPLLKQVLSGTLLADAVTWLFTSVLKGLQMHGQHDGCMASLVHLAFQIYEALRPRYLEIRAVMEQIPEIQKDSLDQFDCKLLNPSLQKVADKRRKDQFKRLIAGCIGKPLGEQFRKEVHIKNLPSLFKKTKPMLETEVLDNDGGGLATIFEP
# UniProt Q96DT7: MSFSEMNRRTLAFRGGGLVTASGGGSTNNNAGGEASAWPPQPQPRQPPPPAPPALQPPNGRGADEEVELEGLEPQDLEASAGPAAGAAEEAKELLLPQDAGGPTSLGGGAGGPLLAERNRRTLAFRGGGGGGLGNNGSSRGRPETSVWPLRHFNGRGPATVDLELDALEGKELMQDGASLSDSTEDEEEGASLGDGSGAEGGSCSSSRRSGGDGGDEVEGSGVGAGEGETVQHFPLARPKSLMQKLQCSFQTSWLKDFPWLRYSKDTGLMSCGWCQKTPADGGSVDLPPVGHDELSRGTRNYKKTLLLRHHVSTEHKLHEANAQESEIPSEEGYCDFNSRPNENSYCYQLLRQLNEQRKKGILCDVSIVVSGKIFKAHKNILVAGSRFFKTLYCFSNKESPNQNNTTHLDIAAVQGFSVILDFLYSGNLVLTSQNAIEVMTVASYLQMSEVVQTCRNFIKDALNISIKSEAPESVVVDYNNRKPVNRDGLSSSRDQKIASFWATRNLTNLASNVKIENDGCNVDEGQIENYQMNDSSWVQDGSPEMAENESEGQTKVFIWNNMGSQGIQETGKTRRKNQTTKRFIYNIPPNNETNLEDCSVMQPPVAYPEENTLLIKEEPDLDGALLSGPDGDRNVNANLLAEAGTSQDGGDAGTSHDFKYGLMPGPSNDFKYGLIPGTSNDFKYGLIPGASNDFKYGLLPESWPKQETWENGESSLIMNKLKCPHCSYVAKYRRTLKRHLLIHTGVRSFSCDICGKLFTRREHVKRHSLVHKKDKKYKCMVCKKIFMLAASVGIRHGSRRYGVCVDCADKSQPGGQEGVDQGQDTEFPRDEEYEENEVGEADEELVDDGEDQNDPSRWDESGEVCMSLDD
# The list shows a part of the results. The data scatter; read single values as rough.
# Compound: ClCC(=O)N[C@@H]1CCCc2ccccc12
# Test: log2 mean competition ratio of IA-DTB cysteine labelling (DMSO/compound) (log2 ratio); higher = stronger cysteine engagement by compound
# Conditions: 50 µM; treatment time: 4 h; cell line lysate: HEK293T
# Method: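 IA-DTB competitive cysteine chemoproteomics in HEK293T RIPA lysate. Lysates were treated with compound 29 or 30 at 50 or 200 µM for 4 h, then IA-DTB (500 µM, 1 h), trypsin-digested, NeutrAvidin-enriched and analysed by diaPASEF. Competition ratio = intensity DMSO / intensity compound (n=4 treated, n=64 DMSO); binding: mean log2 CR ≥ 1 and p ≤ 0.05 plus QC filters. Target is the cysteine site.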
row,Target,log2 mean competition ratio
1,WARS1 C274,-0.2
2,WAPL C160 (UniProt Q7Z5K2),-0.099
3,ZC3H11A C636 (UniProt O75152),0.112
4,WDR11 C1000 (UniProt Q9BZH6),-0.203
5,ZC3H7A C594 (UniProt Q8IWR0),-0.0043
6,XPO6 C547 (UniProt Q96QU8),0.0708
7,WDSUB1 C410 (UniProt Q8N9V3),-0.24
8,WDR12 C97 (UniProt Q9GZL7),0.411
9,XRN1 C398 (UniProt Q8IZH2),0.0181
10,WDFY3 C896 (UniProt Q8IZQ1),-0.195
11,WNK3 C1406 (UniProt Q9BYP7),-0.103
12,XPO5 C1044 (UniProt Q9HAV4),0.0582
13,ZBTB10 C394 (UniProt Q96DT7),0.0798
14,WDR3 C625 (UniProt Q9UNX4),0.0415
15,WDCP C302 (UniProt Q9H6R7),0.0477
16,WDTC1 C236 (UniProt Q8N5D0),-0.0123
17,XPO5 C37 (UniProt Q9HAV4),0.0545
18,WAPL C929 (UniProt Q7Z5K2),-0.121
19,VPS35L C925 (UniProt Q7Z3J2),-0.0278
20,WDR7 C326 (UniProt Q9Y4E6),-0.335

# Same assay, conditions: 200 µM; treatment time: 4 h; cell line lysate: HEK293T
row,Target,log2 mean competition ratio
1,WARS1 C274,-0.147
2,WAPL C160 (UniProt Q7Z5K2),0.163
3,ZC3H11A C636 (UniProt O75152),-0.147
4,WDR11 C1000 (UniProt Q9BZH6),-0.0687
5,ZC3H7A C594 (UniProt Q8IWR0),0.0386
6,XPO6 C547 (UniProt Q96QU8),0.267
7,WDSUB1 C410 (UniProt Q8N9V3),0.056
8,WDR12 C97 (UniProt Q9GZL7),-0.104
9,XRN1 C398 (UniProt Q8IZH2),0.556
10,WDFY3 C896 (UniProt Q8IZQ1),0.247
11,WNK3 C1406 (UniProt Q9BYP7),0.0491
12,XPO5 C1044 (UniProt Q9HAV4),0.237
13,ZBTB10 C394 (UniProt Q96DT7),-0.127
14,WDR3 C625 (UniProt Q9UNX4),0.13
15,WDCP C302 (UniProt Q9H6R7),0.0714
16,WDTC1 C236 (UniProt Q8N5D0),-0.0819
17,XPO5 C37 (UniProt Q9HAV4),0.169
18,WAPL C929 (UniProt Q7Z5K2),-0.0312
19,VPS35L C925 (UniProt Q7Z3J2),0.292
20,WDR7 C326 (UniProt Q9Y4E6),-0.0252
